PubChem BioAssay AID1259405 | NCATS, 2018

Screen: 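Knock-downs that lift recombinant protein yield in hamster ovary cells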 (primary screen)
System: Chinese hamster CHO-K1 ovary cells with stable secreted eGFP expression
Knock-down reagent: single siRNA against mouse genes, 0.8 pmol siRNA per well (2 µl of 400 nM stock)
Timing: 3 days
Read-out: 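Percent of the per-plate non-targeting control median for intracellular GFP per well by laser scanning cytometry and for cell viability by ATP luminescence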
Direction: GFP, % of control: higher = more GFP per well, higher productivity; viability (ATP), % of control: higher = more viable cells (more ATP)
Rule for the call: 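Called active when intracellular GFP, relative to negative control, is at or above 120%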
The deposit covers about 50,000 reagents; below is a random part of them. Of all reagents, about 4,000 (8%) were called active. 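Mouse siRNA library applied to hamster cells; one well for each siRNA.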 Reagents against one gene are numbered here. No sequences are given here.

Depletion of Gng5 #1 gave: GFP, % of control 95.5; viability (ATP), % of control 107; inactive.
After knock-down of Gng5 #2 the results were GFP, % of control 66.9; viability (ATP), % of control 54.2; inactive.
With knock-down of Gng5 #3, the record shows GFP, % of control 59.8; viability (ATP), % of control 37.4; inactive.
A730089K16Rik #1 scored GFP, % of control 107; viability (ATP), % of control 72.5; inactive.
A730089K16Rik #2 scored GFP, % of control 45.2; viability (ATP), % of control 112; inactive.
Silencing of A730089K16Rik #3 came out at: GFP, % of control 86.7; viability (ATP), % of control 88.5; inactive.
Or12e1 #1 showed GFP, % of control 74.8; viability (ATP), % of control 48.4; inactive.
Knock-down of Or12e1 #2 resulted in: GFP, % of control 89.1; viability (ATP), % of control 82.4; inactive.
Or12e1 #3 showed GFP, % of control 66.3; viability (ATP), % of control 78.1; inactive.
Trem3 #1 scored GFP, % of control 91.3; viability (ATP), % of control 83.6; inactive.
With knock-down of Trem3 #2 the results were GFP, % of control 103; viability (ATP), % of control 86.9; inactive.
Trem3 #3 showed GFP, % of control 67.3; viability (ATP), % of control 104; inactive.

Laid out differently: 2 of the entries above.
{"Gene": "Gng5", "reagent no.": 2, "GFP, % of control": 66.9, "viability (ATP), % of control": 54.2, "activity call": "inactive"}
{"Gene": "Gng5", "reagent no.": 3, "GFP, % of control": 59.8, "viability (ATP), % of control": 37.4, "activity call": "inactive"}

Further entries follow.
After knock-down of Lca5l #1, the record shows GFP, % of control 51.3; viability (ATP), % of control 49.8; inactive.
Against Lca5l #2, the values are GFP, % of control 62.8; viability (ATP), % of control 85.3; inactive.
After knock-down of Lca5l #3, the record shows GFP, % of control 101; viability (ATP), % of control 110; inactive.
Parp8 #1 gave GFP, % of control 70.6; viability (ATP), % of control 93.9; inactive.
Depletion of Parp8 #2 came out at: GFP, % of control 103; viability (ATP), % of control 89.4; inactive.
Knock-down of Parp8 #3 came out at: GFP, % of control 120; viability (ATP), % of control 94.7; active.
